Screen size: about 300,000 compounds; about 3,700 (1.2%) were called active. Inconclusive means that the source gave no clear call. Such entries were picked first, then a sample of the others. The call rests on the fitted dose curve; tested in HEK293 cells. A potency beside an inconclusive call is a rough fit, not a confirmed value.
assay: qHTS for Inhibitors of binding or entry into cells for Lassa Virus; details: Lassa virus pseudotype entry inhibition, cell reporter; series mostly up to 37.9 µM; further: nearly all actives have a fitted effect of over 50% in size
Potency means the concentration at half of the fitted maximal effect.

| Structure (SMILES) | Potency |
| --- | --- |
| COc1cccc(-c2csc(N3CCN(C(=S)Nc4cccc(Cl)c4)CC3)n2)c1 | inconclusive: 29.1 µM [inhibitor, single point] |
| O=C(NCC1CCCO1)c1ccc(Cl)c(S(=O)(=O)N2CCOCC2)c1 (configuration not stated) | inconclusive: 3.16 µM [inhibitor, single point] |
| O=C(CNC(=S)N(Cc1ccccc1)Cc1cccnc1)NC1CCCCC1 | inactive |
| CCc1nn2c(=O)cc(COC(=O)c3cccc(NC(=O)c4ccccc4C)c3)nc2s1 | inconclusive: 1.12 µM [activator, full curve, poor fit] |
| COc1ccc(NC(=O)NC(C)c2ccc3c(c2)OCO3)cc1OC (configuration not stated) | inconclusive: 35.5 µM [inhibitor, single point] |
| COc1ccc2c(CNC3CCCC3)c(C(=O)O)n(Cc3ccccc3C)c2c1 | inactive |
| Clc1cc(Cl)c2nc(N3CCOCC3)sc2c1 | inactive |
| Cc1ccc(C(C(=O)NC2CCCC2)N(C(=O)Cc2cccs2)c2ccc3c(c2)OCCO3)cc1 (configuration not stated) | inconclusive: 11.6 µM [inhibitor, partial curve] |
| Cc1ccc2sc(-c3ccc(NC(=O)/C=C\C(=O)O)cc3)nc2c1 | inconclusive: 10 µM [inhibitor, partial curve, poor fit] |
| Cc1cnc(C(=O)OCC(=O)Nc2cc(Cl)ccc2C#N)cn1 | inactive |
| CC(C)(C)C1CCc2nc(NC(=O)COc3ccccc3[N+](=O)[O-])sc2C1 (configuration not stated) | inactive |
| Cc1occc1-c1nnc(SC(C)C(=O)Nc2ccccc2F)o1 (configuration not stated) | active: 11.2 µM |
| C/C(=N\OCC(=O)N/N=C/c1ccccc1O)c1cccs1 | inconclusive: 18.3 µM [inhibitor, single point] |
| CC(C)NC[C@H](O)COc1cccc2[nH]ccc12 | inactive |
| O=C1CNC(=O)/C1=C\N1CCN(C(c2ccccc2)c2ccccc2)CC1 | inactive |
| COc1ccc(CCNC(=S)Nc2ccccc2C)cc1 | inactive |
| O=C(CN1CCN(Cc2cccc(F)c2)CC1)NCc1ccccc1 | inconclusive: 22.4 µM [inhibitor, single point] |
| CCN(CC)c1ccc(NC(=O)c2ccccc2F)cc1 | inconclusive: 18.3 µM [inhibitor, single point] |
| COc1ccc(C2=C(C)C(N3CCC(C(=O)NCc4ccco4)CC3)=NS2(=O)=O)cc1 | inconclusive: 2.24 µM [activator, full curve, poor fit] |
| Cc1ccc(CNS(=O)(=O)c2cc(C(=O)Nc3ccc(C(C)C)cc3)ccc2F)cc1 | inactive |
| C(=C/c1ccnc2nc(SC/C=C/c3ccccc3)nn12)/c1ccccc1 | inconclusive: 3.66 µM [inhibitor, full curve] |
| COc1cc2c(cc1OC)-c1cc(Nc3ccccc3C)nc(=O)n1CC2 | inconclusive: 7.08 µM [inhibitor, partial curve, poor fit] |
| CCOC(=O)Nc1cc2c(c(N)n1)N=C(c1ccccc1)CN2 | inconclusive: 0.891 µM [inhibitor, partial curve, poor fit] |
| COc1cccc(NC(=S)NC2CC(C)(C)NC(C)(C)C2)c1 | inactive |

Reformatted: 3 of the compounds above
Cc1ccc(C(C(=O)NC2CCCC2)N(C(=O)Cc2cccs2)c2ccc3c(c2)OCCO3)cc1 (configuration not stated)
  Potency: inconclusive: 11.6 µM [inhibitor, partial curve]
COc1ccc(C2=C(C)C(N3CCC(C(=O)NCc4ccco4)CC3)=NS2(=O)=O)cc1
  Potency: inconclusive: 2.24 µM [activator, full curve, poor fit]
Cc1ccc(CNS(=O)(=O)c2cc(C(=O)Nc3ccc(C(C)C)cc3)ccc2F)cc1
  Potency: inactive

Later entries.

| Structure (SMILES) | Potency |
| --- | --- |
| O=S(=O)(c1ccc(Cl)cc1)N1c2ccccc2Oc2nc3ccccc3nc21 | inactive |
| Cc1cc(C)c(C(N)=O)c(SCC(=O)c2cc(C)c(C)cc2C)n1 | inactive |
| COc1ccc2c(c1)c(CC(=O)Nc1cccc(F)c1C)c(C)n2C(=O)c1ccc(Cl)cc1 | inconclusive: 2.51 µM [inhibitor, partial curve, poor fit] |
| Cc1cc2nc(C(F)(F)F)[nH]c(=O)n2n1 | inactive |
| Cc1ccc(NC(=O)CCC(=O)NNC(=O)Nc2cccc(Cl)c2)c(C)c1 | inconclusive: 6.31 µM [inhibitor, partial curve, poor fit] |
| CN(C)c1cccc(C(=O)Nc2cc(C(F)(F)F)ccc2-n2cnc3ccccc32)c1 | inactive |
| Cc1ccc(CN(N=Nc2nonc2N)c2nonc2N)c(C)c1 | inconclusive: 6.51 µM [inhibitor, partial curve, poor fit] |
| CCN(C(=O)COC(=O)Cc1c[nH]c2ccccc12)C1CCS(=O)(=O)C1 (configuration not stated) | inconclusive: 6.31 µM [activator, full curve, poor fit] |
| Cc1ccc(CN(C(=O)c2ccc(F)cc2)c2ccccn2)o1 | inactive |
| CCOC(=O)Nc1c(C(=O)OC)[nH]c2cc(OC)ccc12 | inconclusive: 11.2 µM [inhibitor, partial curve, poor fit] |
| CCn1nnc2cc(C(=O)O)ccc21 | inactive |
| CCCSC1=C(C#N)C(c2cccs2)C(C(=O)Nc2ccccc2)=C(C)N1 (configuration not stated) | inconclusive: 31.6 µM [inhibitor, single point] |
| CN=c1scc(C)n1/N=C/c1ccc(O)cc1O | inconclusive: 8.91 µM [inhibitor, partial curve, poor fit] |
| Cc1cc(C(=O)CSc2ncn[nH]2)c(C)n1-c1cccc(S(=O)(=O)N2CCOCC2)c1 | inactive |
| COC(=O)c1ccccc1NC(=O)COCc1cc(-c2cccs2)on1 | inactive |
| Cc1ccccc1-c1nc2c3c(-c4ccccc4)c(-c4ccccc4)oc3ncn2n1 | inactive |
| CCC(CC)c1nnc(NC(=O)CCS(=O)(=O)Cc2ccccc2)s1 | inconclusive: 12.6 µM [inhibitor, single point] |
| COC(=O)c1c(NC(=O)/C=C/c2ccc3c(c2)OCO3)sc(C)c1C | inactive |
| Cc1cc(C)c(S(=O)(=O)Nc2ccccc2)c(C)c1 | inconclusive: 0.891 µM [inhibitor, partial curve, poor fit] |
| Cc1ccc2nc(-c3ccc(NC(=O)COC(=O)c4ccc(Br)o4)cc3)sc2c1 | active: 5.62 µM |
| CSC1=NC(C)(C)C=C(/C=C/c2c(Cl)cccc2Cl)N1 | inactive |
| CCc1sc(C(=O)NCCc2ccc(S(N)(=O)=O)cc2)cc1Br | inconclusive: 7.94 µM [inhibitor, partial curve, poor fit] |
| Cc1onc(-c2ccccc2)c1C(=O)Nc1ccc(S(=O)(=O)N2CCCC2)cc1 | inconclusive: 35.5 µM [inhibitor, single point] |
